Assay results published in US20250066463A1.
No constants are given. Whether binding was seen depends on the method and setting. Some binding calls cover weakened binding; strength is not graded here.

Tests used:
[1] = molecular target: T1, Biotin-Avi-ANGPTL8 (human) (UniProt Q6UXH0); assay: TR-FRET, Europium-streptavidin on Biotin-Avi-ANGPTL8 and Alexa Fluor 647 labeled antibody at 25 nM
T1 sequence (chain, biotin on the N-terminal Avi tag (BirA), bound by Europium-streptavidin donor): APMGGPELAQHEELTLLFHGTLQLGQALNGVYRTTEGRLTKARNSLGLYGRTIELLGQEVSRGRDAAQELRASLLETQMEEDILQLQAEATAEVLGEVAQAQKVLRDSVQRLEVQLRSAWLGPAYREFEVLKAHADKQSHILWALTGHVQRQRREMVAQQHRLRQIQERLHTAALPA

[2] = molecular target: T1, Biotin-Avi-ANGPTL8 (human); assay: TR-FRET between Europium-streptavidin on N-terminally biotinylated Avi-ANGPTL8 (co-expressed with ANGPTL3) and Alexa Fluor 647 labeled antibody at 25 nM

B1: H4H15341P (antibody, V domains shown)
VH: EVQLVESGGGLVQPGGSLRLSCAASGFTFNNHEMNWVRQAPGKGLEWVSYISSSGNTVTYADFLKGRFTISRDNAKNSLFLQMNSLRDEDTAVYYCARDHLSGTSPLSYWGQGTLVTVSS
VL: DIQMTQSPSSLSASVGDRVTITCQASQDINNYLNWFQQKPGKAPKLLIFDASNLETGVPSRFSGSGSGTDFTFTISSLQPEDIATYFCQQYENLPYTFGQGTKLEIK
For B1, the binding [1] was “binds” and the binding [2] was “binds”.
